Measurements: doi:10.1101/2025.07.25.666749

T1: UltraID_ZFP36L1 (UltraID fused to the N-terminus of ZFP36L1) (UniProt Q07352)
T1 sequence: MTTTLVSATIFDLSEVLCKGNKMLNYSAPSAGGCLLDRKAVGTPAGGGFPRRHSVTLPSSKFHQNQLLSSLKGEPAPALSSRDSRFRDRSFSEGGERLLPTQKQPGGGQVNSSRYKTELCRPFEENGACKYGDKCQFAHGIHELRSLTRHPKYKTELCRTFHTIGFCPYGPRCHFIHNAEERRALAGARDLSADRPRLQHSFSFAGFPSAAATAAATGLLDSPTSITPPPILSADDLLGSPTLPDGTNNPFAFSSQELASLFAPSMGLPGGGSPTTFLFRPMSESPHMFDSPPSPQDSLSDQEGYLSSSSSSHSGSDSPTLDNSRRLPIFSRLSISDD

B1: ZNF598 (protein, UniProt Q86UK7 1-904)
chain: MAAAGGAEGRRAALEAAAAAAPERGGGSCVLCCGDLEATALGRCDHPVCYRCSTKMRVLCEQRYCAVCREELRQVVFGKKLPAFATIPIHQLQHEKKYDIYFADGKVYALYRQLLQHECPRCPELPPFSLFGDLEQHMRRQHELFCCRLCLQHLQIFTYERKWYSRKDLARHRMQGDPDDTSHRGHPLCKFCDERYLDNDELLKHLRRDHYFCHFCDSDGAQDYYSDYAYLREHFREKHFLCEEGRCSTEQFTHAFRTEIDLKAHRTACHSRSRAEARQNRHIDLQFSYAPRHSRRNEGVVGGEDYEEVDRYSRQGRVARAGTRGAQQSRRGSWRYKREEEDREVAAAVRASVAAQQQEEARRSEDQEEGGRPKKEEAAARGPEDPRGPRRSPRTQGEGPGPKETSTNGPVSQEAFSVTGPAAPGCVGVPGALPPPSPKLKDEDFPSLSASTSSSCSTAATPGPVGLALPYAIPARGRSAFQEEDFPALVSSVPKPGTAPTSLVSAWNSSSSSKKVAQPPLSAQATGSGQPTRKAGKGSRGGRKGGPPFTQEEEEDGGPALQELLSTRPTGSVSSTLGLASIQPSKVGKKKKVGSEKPGTTLPQPPPATCPPGALQAPEAPASRAEGPVAVVVNGHTEGPAPARSAPKEPPGLPRPLGSFPCPTPQEDFPALGGPCPPRMPPPPGFSAVVLLKGTPPPPPPGLVPPISKPPPGFSGLLPSPHPACVPSPATTTTTKAPRLLPAPRAYLVPENFRERNLQLIQSIRDFLQSDEARFSEFKSHSGEFRQGLISAAQYYKSCRDLLGENFQKVFNELLVLLPDTAKQQELLSAHTDFCNREKPLSTKSKKNKKSAWQATTQQAGLDCRVCPTCQQVLAHGDASSHQALHAARDDDFPSLQAIARIIT
B2: FAM120A (protein, UniProt Q9NZB2 1-1118)
chain: MGVQGFQDYIEKHCPSAVVPVELQKLARGSLVGGGRQRPPQTPLRLLVDADNCLHRLYGGFYTDWVSGGQWNHMLGYLAALAKACFGGNIELFVFFNGALEKARLHEWVKRQGNERQTAQQIVSHVQNKGTPPPKVWFLPPVCMAHCIRLALIRFHVKVAQSIEDHHQEVIGFCRENGFHGLVAYDSDYALCNIPYYFSAHALKLSRNGKSLTTSQYLMHEVAKQLDLNPNRFPIFAALLGNHILPDEDLASFHWSLLGPEHPLASLKVRAHQLVLPPCDVVIKAVADYVRNIQDTSDLDAIAKDVFQHSQSRTDDKVIRFKRAIGYYSATSKPMSFHPPHYLAARPGPFGMPGMVPPHVPPQMLNIPQTSLQAKPVAPQVPSPGGAPGQGPYPYSLSEPAPLTLDTSGKNLTEQNSYSNIPHEGKHTPLYERSSPINPAQSGSPNHVDSAYFPGSSTSSSSDNDEGSGGATNHISGNKIGWEKTGSHSEPQARGDPGDQTKAEGSSTASSGSQLAEGKGSQMGTVQPIPCLLSMPTRNHMDITTPPLPPVAPEVLRVAEHRHKKGLMYPYIFHVLTKGEIKIAVSIEDEANKDLPPAALLYRPVRQYVYGVLFSLAESRKKTERLAFRKNRLPPEFSPVIIKEWAAYKGKSPQTPELVEALAFREWTCPNLKRLWLGKAVEDKNRRMRAFLACMRSDTPAMLNPANVPTHLMVLCCVLRYMVQWPGARILRRQELDAFLAQALSPKLYEPDQLQELKIENLDPRGIQLSALFMSGVDMALFANDACGQPIPWEHCCPWMYFDGKLFQSKLLKASREKTPLIDLCDGQADQAAKVEKMRQSVLEGLSFSRQSHTLPFPPPPALPFYPASAYPRHFGPVPPSQGRGRGFAGVCGFGGPYGETVATGPYRAFRVAAASGHCGAFSGSDSSRTSKSQGGVQPIPSQGGKLEIAGTVVGHWAGSRRGRGGRGPFPLQVVSVGGPARGRPRGVISTPVIRTFGRGGRYYGRGYKNQAAIQGRPPYAASAEEVAKELKSKSGESKSSAMSSDGSLAENGVMAEEKPAPQMNGSTGDARAPSHSESALNNDSKTCNTNPHLNALSTDSACRREAALEAAVLNKEE
B3: MOV10 (protein, UniProt Q9HCE1 1-1003)
chain: MPSKFSCRQLREAGQCFESFLVVRGLDMETDRERLRTIYNRDFKISFGTPAPGFSSMLYGMKIANLAYVTKTRVRFFRLDRWADVRFPEKRRMKLGSDISKHHKSLLAKIFYDRAEYLHGKHGVDVEVQGPHEARDGQLLIRLDLNRKEVLTLRLRNGGTQSVTLTHLFPLCRTPQFAFYNEDQELPCPLGPGECYELHVHCKTSFVGYFPATVLWELLGPGESGSEGAGTFYIARFLAAVAHSPLAAQLKPMTPFKRTRITGNPVVTNRIEEGERPDRAKGYDLELSMALGTYYPPPRLRQLLPMLLQGTSIFTAPKEIAEIKAQLETALKWRNYEVKLRLLLHLEELQMEHDIRHYDLESVPMTWDPVDQNPRLLTLEVPGVTESRPSVLRGDHLFALLSSETHQEDPITYKGFVHKVELDRVKLSFSMSLLSRFVDGLTFKVNFTFNRQPLRVQHRALELTGRWLLWPMLFPVAPRDVPLLPSDVKLKLYDRSLESNPEQLQAMRHIVTGTTRPAPYIIFGPPGTGKTVTLVEAIKQVVKHLPKAHILACAPSNSGADLLCQRLRVHLPSSIYRLLAPSRDIRMVPEDIKPCCNWDAKKGEYVFPAKKKLQEYRVLITTLITAGRLVSAQFPIDHFTHIFIDEAGHCMEPESLVAIAGLMEVKETGDPGGQLVLAGDPRQLGPVLRSPLTQKHGLGYSLLERLLTYNSLYKKGPDGYDPQFITKLLRNYRSHPTILDIPNQLYYEGELQACADVVDRERFCRWAGLPRQGFPIIFHGVMGKDEREGNSPSFFNPEEAATVTSYLKLLLAPSSKKGKARLSPRSVGVISPYRKQVEKIRYCITKLDRELRGLDDIKDLKVGSVEEFQGQERSVILISTVRSSQSFVQLDLDFNLGFLKNPKRFNVAVTRAKALLIIVGNPLLLGHDPDWKVFLEFCKENGGYTGCPFPAKLDLQQGQNLLQGLSKLSPSTSGPHSHDYLPQEREGEGGLSLQVEPEWRNEL
B4: PARN (protein, UniProt O95453 1-639)
chain: MEIIRSNFKSNLHKVYQAIEEADFFAIDGEFSGISDGPSVSALTNGFDTPEERYQKLKKHSMDFLLFQFGLCTFKYDYTDSKYITKSFNFYVFPKPFNRSSPDVKFVCQSSSIDFLASQGFDFNKVFRNGIPYLNQEEERQLREQYDEKRSQANGAGALSYVSPNTSKCPVTIPEDQKKFIDQVVEKIEDLLQSEENKNLDLEPCTGFQRKLIYQTLSWKYPKGIHVETLETEKKERYIVISKVDEEERKRREQQKHAKEQEELNDAVGFSRVIHAIANSGKLVIGHNMLLDVMHTVHQFYCPLPADLSEFKEMTTCVFPRLLDTKLMASTQPFKDIINNTSLAELEKRLKETPFNPPKVESAEGFPSYDTASEQLHEAGYDAYITGLCFISMANYLGSFLSPPKIHVSARSKLIEPFFNKLFLMRVMDIPYLNLEGPDLQPKRDHVLHVTFPKEWKTSDLYQLFSAFGNIQISWIDDTSAFVSLSQPEQVKIAVNTSKYAESYRIQTYAEYMGRKQEEKQIKRKWTEDSWKEADSKRLNPQCIPYTLQNHYYRNNSFTAPSTVGKRNLSPSQEEAGLEDGVSGEISDTELEQTDSCAEPLSEGRKKAKKLKRMKKELSPAGSISKNSPATLFEVPDTW
B5: PAN2 (protein, UniProt Q504Q3 1-1202)
chain: MNFEGLDPGLAEYAPAMHSALDPVLDAHLNPSLLQNVELDPEGVALEALPVQESVHIMEGVYSELHSVVAEVGVPVSVSHFDLHEEMLWVGSHGGHATSFFGPALERYSSFQVNGSDDIRQIQSLENGILFLTKNNLKYMARGGLIIFDYLLDENEDMHSLLLTDSSTLLVGGLQNHIIEIDLNTVQETQKYAVETPGVTIMRQTNRFFFCGHTSGKVSLRDLRTFKVEHEFDAFSGSLSDFDVHGNLLAACGFSSRLTGLACDRFLKVYDLRMMRAITPLQVHVDPAFLRFIPTYTSRLAIISQSGQCQFCEPTGLANPADIFHVNPVGPLLMTFDVSASKQALAFGDSEGCVHLWTDSPEPSFNPYSRETEFALPCLVDSLPPLDWSQDLLPLSLIPVPLTTDTLLSDWPAANSAPAPRRAPPVDAEILRTMKKVGFIGYAPNPRTRLRNQIPYRLKESDSEFDSFSQVTESPVGREEEPHLHMVSKKYRKVTIKYSKLGLEDFDFKHYNKTLFAGLEPHIPNAYCNCMIQVLYFLEPVRCLIQNHLCQKEFCLACELGFLFHMLDLSRGDPCQGNNFLRAFRTIPEASALGLILADSDEASGKGNLARLIQRWNRFILTQLHQDMQELEIPQAYRGAGGSSFCSSGDSVIGQLFSCEMENCSLCRCGSETVRASSTLLFTLSYPDGSKSDKTGKNYDFAQVLKRSICLDQNTQAWCDTCEKYQPTIQTRNIRHLPDILVINCEVNSSKEADFWRMQAEVAFKMAVKKHGGEISKNKEFALADWKELGSPEGVLVCPSIEELKNVWLPFSIRMKMTKNKGLDVCNWTDGDEMQWGPARAEEEHGVYVYDLMATVVHILDSRTGGSLVAHIKVGETYHQRKEGVTHQQWYLFNDFLIEPIDKHEAVQFDMNWKVPAILYYVKRNLNSRYNLNIKNPIEASVLLAEASLARKQRKTHTTFIPLMLNEMPQIGDLVGLDAEFVTLNEEEAELRSDGTKSTIKPSQMSVARITCVRGQGPNEGIPFIDDYISTQEQVVDYLTQYSGIKPGDLDAKISSKHLTTLKSTYLKLRFLIDIGVKFVGHGLQKDFRVINLMVPKDQVLDTVYLFHMPRKRMISLRFLAWYFLDLKIQGETHDSIEDARTALQLYRKYLELSKNGTEPESFHKVLKGLYEKGRKMDWKVPEPEGQTSPKNAAVFSSVLAL

What follows are molecules tested against T1, UltraID_ZFP36L1 (UltraID fused to the N-terminus of ZFP36L1) (assay: proximity labelling).
In the case of CNOT3 (from UniProt O75175 1-753), the binding is reported as “binds”. EXOC1 (from UniProt Q9NV70 1-894) was tested, and the binding was “binds”. With EXOC3 (from UniProt O60645 1-745) the binding was “binds”. FXR1 (from UniProt P51114 1-621) was tested, and the binding was “binds”. For 4EHP (from UniProt O60573 1-245), the binding was “binds”. For YWHAB (from UniProt P31946 1-246), the binding was “binds”. With AGO2 (from UniProt Q9UKV8 1-859) the binding was “binds”. With CNOT7 (from UniProt Q9UIV1 1-285) the binding was “binds”. In the case of CNOT2 (from UniProt Q9NZN8 1-540), the binding is reported as “binds”. With EXOC4 (from UniProt Q96A65 1-974) the binding was “binds”. NUPL1 (from UniProt Q9BVL2 1-599) was tested, and the binding was “binds”. With G3BP1 (from UniProt Q13283 1-466) the binding was “binds”. DCP2 (from UniProt Q8IU60 1-420) was tested, and the binding was “binds”. For FXR2 (from UniProt P51116 1-673), the binding was “binds”. “SQSTM1 (p62) (from UniProt Q13501 1-440)” was tested, and the binding was “binds”. With YWHAZ (from UniProt P63104 1-245) the binding was “binds”. In the case of PRRC2A (from UniProt P48634 1-2157), the binding is reported as “binds”.

Biological target: T1, UltraID_ZFP36L1 (UltraID fused to the N-terminus of ZFP36L1)
Test: proximity labelling
Remark: another data set of the same source
For B1, the binding was “binds”. For B2, the binding was “binds”. With B3 the binding was “binds”. For B4, the binding was “binds”. In the case of B5, the binding is reported as “binds”.

These are yes or no findings as the source states them, for the method shown. Binding seen in cells or lysates may run through a third protein. Here binding means that the protein was enriched with, or labelled near, the bait; the list need not be complete. Tags and fused reporters may be left off the sequences shown.
